Assay results taken from patent US20230287071A1.
These are yes or no findings as the source states them, for the method shown. Binding calls can cover weak binding; strength is not graded here.

B1: … (SEQ ID NO: 255) (peptide)
peptide: KQWEYNEKLAF
B2: … (SEQ ID NO: 248) (peptide)
peptide: KESQLPTVMDF
B3: … (SEQ ID NO: 247) (peptide)
peptide: KESMLKTTL
B4: … (SEQ ID NO: 17) (peptide)
peptide: SEIYQPRGF
B5: YENILNAI (SEQ ID NO: 262) (peptide)
peptide: YENILNAI
B6: … (SEQ ID NO: 238) (peptide)
peptide: VEDDNYKLSL
B7: … (SEQ ID NO: 259) (peptide)
peptide: IEVSSPITLQAL
B8: … (SEQ ID NO: 277) (peptide)
peptide: VEFPATRSL
B9: … (SEQ ID NO: 264) (peptide)
peptide: RELIKAIGL
B10: SEDLAVHL (SEQ ID NO: 269) (peptide)
peptide: SEDLAVHL
B11: … (SEQ ID NO: 237) (peptide)
peptide: QEIGQKTSV
B12: … (SEQ ID NO: 240) (peptide)
peptide: MELQVSSGF
B13: … (SEQ ID NO: 252) (peptide)
peptide: EEFIGKIGI
B14: … (SEQ ID NO: 254) (peptide)
peptide: QEVAGYVLI
B15: VELEVPQL (SEQ ID NO: 267) (peptide)
peptide: VELEVPQL
B16: … (SEQ ID NO: 280) (peptide)
peptide: AAEPLVGQRW
B17: … (SEQ ID NO: 249) (peptide)
peptide: YEMAIYKKY
B18: … (SEQ ID NO: 261) (peptide)
peptide: QEWDPQKTEKY
B19: … (SEQ ID NO: 256) (peptide)
peptide: RLLPGKVVW
B20: … (SEQ ID NO: 246) (peptide)
peptide: HEHGLFNLY
B21: HEIPQESL (SEQ ID NO: 281) (peptide)
peptide: HEIPQESL
B22: … (SEQ ID NO: 258) (peptide)
peptide: IEVSSPITL
B23: … (SEQ ID NO: 239) (peptide)
peptide: DEDYTYLIL
B24: … (SEQ ID NO: 274) (peptide)
peptide: DEIDKLTGY
B25: … (SEQ ID NO: 241) (peptide)
peptide: QELLDIANYL
B26: … (SEQ ID NO: 236) (peptide)
peptide: LEDQLKPMLEW
B27: … (SEQ ID NO: 245) (peptide)
peptide: MEFQGPMPAGM
B28: … (SEQ ID NO: 250) (peptide)
peptide: AELDHLASL
B29: … (SEQ ID NO: 263) (peptide)
peptide: AEQLRGFNA
B30: … (SEQ ID NO: 266) (peptide)
peptide: EEEDRDGHTW
B31: … (SEQ ID NO: 260) (peptide)
peptide: VELMFPLLL
B32: … (SEQ ID NO: 18) (peptide)
peptide: QEAPRPASSL
B33: … (SEQ ID NO: 278) (peptide)
peptide: DQVTVFLHF
B34: … (SEQ ID NO: 282) (peptide)
peptide: KEFGIGDLVW
B35: … (SEQ ID NO: 16) (peptide)
peptide: NESDRLVYF
B36: EDLAVHLY (SEQ ID NO: 268) (peptide)
peptide: EDLAVHLY
B37: … (SEQ ID NO: 242) (peptide)
peptide: CDAQIQYSY
B38: … (SEQ ID NO: 253) (peptide)
peptide: QEILHGAVRF
B39: … (SEQ ID NO: 271) (peptide)
peptide: REDLVGPEV
B40: … (SEQ ID NO: 244) (peptide)
peptide: VESSQAFTW
B41: EDNLIHKF (SEQ ID NO: 265) (peptide)
peptide: EDNLIHKF
B42: … (SEQ ID NO: 251) (peptide)
peptide: DESADSEPHKY
B43: … (SEQ ID NO: 272) (peptide)
peptide: SEQNIQRANLF
B44: … (SEQ ID NO: 15) (peptide)
peptide: MEAELVRRI
B45: … (SEQ ID NO: 273) (peptide)
peptide: TEFELLHQV
B46: … (SEQ ID NO: 235) (peptide)
peptide: SESLPRAPL
B47: … (SEQ ID NO: 243) (peptide)
peptide: VEQINISQDW
B48: … (SEQ ID NO: 276) (peptide)
peptide: SEYQDGKEF
B49: … (SEQ ID NO: 279) (peptide)
peptide: GEPVTQPGSLL
B50: … (SEQ ID NO: 19) (peptide)
peptide: MEHSDENIQFW

Molecular target: HLA-B*44:05 (human)
Experiment: UV peptide-exchange ELISA, yield grade

binding, binds:
B1
B2
B3
B4
B5
B6
B7
B8
B9
B10
B11
B12
B13
B14
B15
B16
B17
B18
B19
B20
B21
B22
B23
B24
B25
B26
B27
B28
B29
B30
B31
B32
B33
B34
B35
B36
B37
B38
B39
B40
B41
B42
B43
B44
B45
B46
B47
B48
B49
B50
